Data as given in PubChem BioAssay AID1259308 (NCATS, 2017)

Screen: 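Knock-downs that increase output of a recombinant reporter protein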 (primary screen)
Cell system: human HEK293 embryonic kidney cells stably expressing firefly luciferase (HEK-CMV-Luc2-Hygro)
Reagent: single siRNA against human genes, 0.8 pmol siRNA per well
Timing: 72 h
Detection: 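Reporter luminescence and viable-cell signal on separate replicate plates, given as percent of non-targeting control and median/MAD z-scores, plus per-cell luciferase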
Scale: total luciferase, z-score and total luciferase, % of control: higher = more reporter protein produced; luciferase per cell, z-score: higher = more reporter output per viable cell; viable cells, % of control: higher = more viable cells
Rule for the call: 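Active when the median/MAD z-score for overall luciferase is greater than 3; a gene was taken forward for validation with new siRNAs if at least two of its three siRNAs passed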
Calls: active = raised luciferase; inactive = no rise
The deposit covers about 59,000 reagents; below is a part drawn at random. About 1,510 of all reagents (2.6%) were called active. 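Calls use total luciferase alone and ignore viability, so some active siRNAs may act by altering cell number.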 Entries without a mark were called inactive. The numbers tell different reagents against one gene apart.

no.	Target gene	reagent no.	total luciferase, z-score	total luciferase, % of control	luciferase per cell, z-score	viable cells, % of control
1	CBLC (Cbl proto-oncogene C)	1	-0.105	79.8	-0.227	94.7
2	CBLC (Cbl proto-oncogene C)	2	-0.0654	80.6	-0.223	95.5
3	CBLC (Cbl proto-oncogene C)	3	3.16 (active)	145	2.01	95.2
4	DDX41 (DEAD-box helicase 41)	1	0.154	84.9	0.0422	93.9
5	DDX41 (DEAD-box helicase 41)	2	2.01	122	0.795	110
6	DDX41 (DEAD-box helicase 41)	3	0.454	90.9	-0.206	107
7	OR6C1 (olfactory receptor family 6 subfamily C member 1)	1	0.553	92.9	0.609	88.4
8	OR6C1 (olfactory receptor family 6 subfamily C member 1)	2	-0.541	71.1	-0.356	87.3
9	OR6C1 (olfactory receptor family 6 subfamily C member 1)	3	0.596	93.7	0.169	100
10	NMRK1 (nicotinamide riboside kinase 1)	1	4.26 (active)	167	3.61	72
11	NMRK1 (nicotinamide riboside kinase 1)	2	-0.121	79.5	-0.258	95.1
12	NMRK1 (nicotinamide riboside kinase 1)	3	-1.4	54	-1.31	85.2
13	MRPL47 (mitochondrial ribosomal protein L47)	1	-1.67	48.6	-1.51	80.9
14	MRPL47 (mitochondrial ribosomal protein L47)	2	0.165	85.2	-0.18	99.8
15	MRPL47 (mitochondrial ribosomal protein L47)	3	-1.15	59	-0.684	78.9
16	SCD5 (stearoyl-CoA desaturase 5)	1	-1.17	58.7	-1.08	87.2
17	SCD5 (stearoyl-CoA desaturase 5)	2	-0.989	62.2	-0.812	86.1
18	SCD5 (stearoyl-CoA desaturase 5)	3	-0.96	62.8	-1	91.3
19	GGT6 (gamma-glutamyltransferase 6)	1	-2.22	37.8	-1.87	69.2
20	GGT6 (gamma-glutamyltransferase 6)	2	-0.217	77.6	-0.406	96.5
21	GGT6 (gamma-glutamyltransferase 6)	3	1.87	119	1.59	87.5
22	TRPM2	1	3.55 (active)	153	2.1	98.1
23	TRPM2	2	1.18	105	0.173	112
24	TRPM2	3	0.186	85.6	-0.411	107
25	SLC8A1	1	-0.511	71.7	-0.461	90.5
26	SLC8A1	2	-0.215	77.6	-1.37	124
27	SLC8A1	3	-0.00644	81.8	-0.391	101

4 entries from above, limited to “viable cells, % of control”:
DDX41 (DEAD-box helicase 41) #3 = 107
OR6C1 (olfactory receptor family 6 subfamily C member 1) #1 = 88.4
OR6C1 (olfactory receptor family 6 subfamily C member 1) #2 = 87.3
OR6C1 (olfactory receptor family 6 subfamily C member 1) #3 = 100

The listing continues.
no.	Target gene	reagent no.	total luciferase, z-score	total luciferase, % of control	luciferase per cell, z-score	viable cells, % of control
28	LY6K (lymphocyte antigen 6 family member K)	1	-2.3	36.1	-1.26	56.2
29	LY6K (lymphocyte antigen 6 family member K)	2	0.289	87.6	0.428	87.5
30	LY6K (lymphocyte antigen 6 family member K)	3	0.407	90	-0.445	113
31	H3C13 (H3 clustered histone 13)	1	-0.528	71.4	-0.726	96.6
32	H3C13 (H3 clustered histone 13)	2	1.69	115	2.39	68.8
33	H3C13 (H3 clustered histone 13)	3	-1.34	55.3	-1.04	81.3
34	LOC402715 (karyopherin subunit alpha 2 pseudogene)	1	-0.661	68.7	-0.0116	77
35	LOC402715 (karyopherin subunit alpha 2 pseudogene)	2	1.05	103	1.18	84.3
36	LOC402715 (karyopherin subunit alpha 2 pseudogene)	3	1.05	103	0.6	98.1
37	MKI67 (marker of proliferation Ki-67)	1	-1.8	46.1	-1.39	74.3
38	MKI67 (marker of proliferation Ki-67)	2	-0.447	73	-0.878	103
39	MKI67 (marker of proliferation Ki-67)	3	-0.264	76.6	-0.561	99.3
40	VNN2 (vanin 2)	1	-1.33	55.5	-1.54	93.1
41	VNN2 (vanin 2)	2	1.63	114	0.622	109
42	VNN2 (vanin 2)	3	-0.29	76.1	-0.407	94.7
43	KLB (klotho beta)	1	2.69	135	2.52	78
44	KLB (klotho beta)	2	0.17	85.3	0.62	80.9
45	KLB (klotho beta)	3	0.187	85.6	0.238	89.8
46	XPOT (exportin for tRNA)	1	0.0953	83.8	-1.05	123
47	XPOT (exportin for tRNA)	2	-1.5	52.1	-2	98.6
48	XPOT (exportin for tRNA)	3	-0.169	78.5	-1.13	118
49	NDUFC1 (NADH:ubiquinone oxidoreductase subunit C1)	1	-0.911	63.8	-1.01	92.9
50	NDUFC1 (NADH:ubiquinone oxidoreductase subunit C1)	2	1.64	114	1.09	96.1
51	NDUFC1 (NADH:ubiquinone oxidoreductase subunit C1)	3	-0.202	77.9	0.0483	85.9
52	AMELX (amelogenin X-linked)	1	1.6	114	1.68	81.6
53	AMELX (amelogenin X-linked)	2	0.156	85	0.551	82.1
54	AMELX (amelogenin X-linked)	3	0.115	84.2	0.427	84
55	DNMT3B (DNA methyltransferase 3 beta)	1	-0.693	68.1	-1.14	103
56	DNMT3B (DNA methyltransferase 3 beta)	2	1.27	107	1.15	88.4
57	DNMT3B (DNA methyltransferase 3 beta)	3	-1.09	60.1	-1.46	98.7
